# In the supplement of paper PMC8166895:
# Structures can show the parent of a compound that is named as a salt. This is one part of the list. Most values lie at the level of the controls, where differences are scatter.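 Melting temperature was read by differential scanning fluorimetry in a single-replicate pilot screen of a library of approved drugs and clinical or known-target compounds. Compounds raising the melting point by at least 2 °C were the top stabilizing hits, and negative shifts mean destabilization.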
# System: SARS-CoV-2 main protease (Mpro, nsp5)
# Experiment: thermal shift ΔTm of Mpro relative to plate average Tm; higher = stronger thermal stabilization of Mpro (binding)
# Details: 10 µM; protein concentration 1 µM
row,SMILES,thermal shift ΔTm of Mpro
1,CCCC(=O)OCOC(=O)C1=C(C)NC(C)=C(C(=O)OC)C1c1cccc(Cl)c1Cl (stereo not drawn) [Clevidipine Butyrate],-0.107 °C
2,CC1(C)S[C@@H]2[C@H](NC(=O)[C@H](N)c3ccccc3)C(=O)N2[C@H]1C(=O)OCOC(=O)[C@@H]1N2C(=O)C[C@H]2S(=O)(=O)C1(C)C [Sultamicillin Tosylate],0.127 °C
3,COc1cc(NC(=O)CCN2CCC(OC(=O)Nc3ccccc3-c3ccccc3)CC2)c(Cl)cc1CNC[C@H](O)c1ccc(O)c2[nH]c(=O)ccc12 [Batefenterol],0.0951 °C
4,NCC[C@H](O)C(=O)N[C@@H]1C[C@H](N)[C@@H](O[C@H]2O[C@H](CN)[C@@H](O)[C@H](O)[C@H]2O)[C@H](O)[C@H]1O[C@H]1O[C@H](CO)[C@@H](O)[C@H](N)[C@H]1O [Amikacin Sulfate Salt],-0.0317 °C
5,NCC[C@H](O)C(=O)N[C@@H]1C[C@H](N)[C@@H](O[C@H]2O[C@H](CN)[C@@H](O)[C@H](O)[C@H]2O)[C@H](O)[C@H]1O[C@H]1O[C@H](CO)[C@@H](O)[C@H](N)[C@H]1O [Amikacin],0.218 °C
6,CCN(CC)CCOC(=O)C(O)(c1ccccc1)c1ccccc1 [Benactyzine hydrochloride],0.251 °C
7,Cc1cc2c(F)c(Oc3ncnn4cc(OC[C@@H](C)O)c(C)c34)ccc2[nH]1,-0.0145 °C
8,O=C(O)CSCC(=O)NC1CCSC1=O (stereo not drawn) [Erdosteine],0.0796 °C
9,COc1cc(/C=C/C(=O)CC(=O)/C=C/c2ccc(O)c(OC)c2)ccc1O [Curcumin],0.237 °C
10,CC(=O)OCC[N+](C)(C)C [Acetylcholine Chloride],0.0763 °C
11,CC1(C)CCC2=C(O1)c1ccccc1C(=O)C2=O [Beta-Lapachone],0.0913 °C
12,C#CCCC(=O)O [4-Pentynoic acid],0.159 °C
13,OCCN1C[C@H](O)[C@@H](O)[C@H](O)[C@H]1CO [Miglitol],0.00599 °C
14,S=C(NCc1ccc2c(c1)OCO2)N1CCN(c2ncnc3c2oc2ccccc23)CC1 [Amuvatinib (MP-470)],0.234 °C
15,CC(=O)Oc1cc2c(s1)CCN(C(C(=O)C1CC1)c1ccccc1F)C2 (stereo not drawn) [Prasugrel],0.18 °C
16,Cn1cnc([N+](=O)[O-])c1Sc1ncnc2[nH]cnc12 [Azathioprine],-0.0325 °C
17,CC(C)C(=O)Nc1ccc([N+](=O)[O-])c(C(F)(F)F)c1 [Flutamide],-0.00142 °C
18,CN(C)[C@@H]1C(=O)C(C(N)=O)=C(O)[C@@]2(O)C(=O)C3=C(O)c4c(O)ccc(Cl)c4[C@@H](O)[C@H]3C[C@@H]12 [Demeclocycline HCl],-0.0735 °C
19,O=C(O)CCCC[C@@H]1SC[C@@H]2NC(=O)N[C@@H]21 [Biotin (Vitamin B7)],0.178 °C
20,CCOc1cc(C(C)(C)C)ccc1C1=N[C@@](C)(c2ccc(Cl)cc2)[C@@](C)(c2ccc(Cl)cc2)N1C(=O)N1CCN(CCCS(C)(=O)=O)CC1,-0.289 °C
21,CCOC(=O)Nc1ccc(NCc2ccc(F)cc2)nc1N [Flupirtine maleate],0.267 °C
22,COCC(=O)Nc1c(I)c(C(=O)NCC(O)CO)c(I)c(C(=O)N(C)CC(O)CO)c1I (stereo not drawn) [Iopromide],0.138 °C
23,O=C(/C=C/N1C[C@H]2C[C@@H]1CN2c1ccccn1)c1ccccc1O,-0.181 °C
24,COc1ccc(C(CN(C)C)C2(O)CCCCC2)cc1 (stereo not drawn) [Venlafaxine],0.242 °C
25,Cc1cc(O)c(-c2ccc([C@@H](C)CN(C)C)cc2)c2c1[nH]c(=O)c1sccc12,-0.132 °C

row,SMILES,thermal shift ΔTm of Mpro
1,C[C@H](CCC(=O)O)[C@H]1CC[C@H]2[C@@H]3CC[C@@H]4C[C@H](O)CC[C@]4(C)[C@H]3CC[C@]12C [Lithocholic acid],-0.48 °C
2,N[C@@H](CSCCCO)C(=O)O [Fudosteine],0.176 °C
3,O=C(Oc1ccc([N+](=O)[O-])cc1)N1CCN(Cc2cccc(Oc3ccccc3)c2)CC1,0.0465 °C
4,CC(=O)SCC(Cc1ccccc1)C(=O)NCC(=O)OCc1ccccc1 (stereo not drawn) [Racecadotril],0.0891 °C
5,COC(=O)C1=C(C)NC(C)=C(C(=O)OC(C)C)C1c1cccc2nonc12 (stereo not drawn) [Isradipine],0.0658 °C
6,O=C1OC(OC(=O)c2cccnc2Nc2cccc(C(F)(F)F)c2)c2ccccc21 (stereo not drawn) [Talniflumate],0.00733 °C
7,CCNC(=O)[C@@H]1CCCN1C(=O)[C@H](CCCN=C(N)N)NC(=O)[C@H](CC(C)C)NC(=O)[C@@H](C)NC(=O)[C@H](Cc1ccc(O)cc1)NC(=O)[C@H](CO)NC(=O)[C@H](Cc1c[nH]c2ccccc12)NC(=O)[C@H](Cc1cnc[nH]1)NC(=O)[C@@H]1CCC(=O)N1 [Alarelin],0.263 °C
8,COc1cc(Oc2ccnc3cc(OC)c(OC)cc23)ccc1NC(=O)NC(C)c1nccs1 (stereo not drawn),-0.182 °C
9,Cn1c(Nc2ccc(C(F)(F)F)cc2)nc2cc(Oc3ccnc(-c4ncc(C(F)(F)F)[nH]4)c3)ccc21,0.654 °C
10,O=C(NO)c1ccc(CC(=O)N(CCO)c2ccccc2)cc1,-0.0394 °C
11,Cc1cc(C)nc(NC(=S)N2CCN(Cc3ccc(C(F)(F)F)cc3)CC2)c1,-0.202 °C
12,O=C(Nc1ccccc1Br)N[C@@H]1CCN(c2ccc(C(F)(F)F)cn2)C1,0.0887 °C
13,Cc1ccccc1C(C(=O)NC1CCCCC1)N(C(=O)Cn1cnc2ccccc21)c1cccc(F)c1 (stereo not drawn),-0.299 °C
14,COc1ccc(S(=O)(=O)N(CCO)c2ccccc2CN(C)C/C=C/c2ccc(Cl)cc2)cc1 [KN-93 Phosphate],-0.328 °C
15,Cc1ccc2nc(N)[nH]c(=O)c2c1Sc1ccncc1 [Nolatrexed],-0.0305 °C
16,CC(C)c1c(-c2ccccc2)nc2c(C#N)c[nH]n2c1=O,-0.11 °C
17,CN(C)CC(c1ccc(O)cc1)C1(O)CCCCC1 (stereo not drawn) [Desvenlafaxine],-0.11 °C
18,CN(C)CC(c1ccc(O)cc1)C1(O)CCCCC1 (stereo not drawn) [Desvenlafaxine Succinate],-0.189 °C
19,O=C(NOCC(O)CO)c1cc(Br)c(F)c(F)c1Nc1ccc(I)cc1F (stereo not drawn),0.0183 °C
20,NC(=O)[C@@H]1CCCN1C(=O)[C@H](Cc1c[nH]cn1)NC(=O)[C@@H]1CCC(=O)N1 [Protirelin],0.304 °C
21,O=C(O)COc1ccc(Br)cc1/C=C1\SC(=S)N(Cc2cccnc2)C1=O [Skp2 Inhibitor C1],-0.0658 °C
22,O=C(C[S+]([O-])Cc1ccco1)NC/C=C\COc1cc(CN2CCCCC2)ccn1 (stereo not drawn) [Lafutidine],0.0981 °C
23,NC(=N\CCCCCC/N=C(N)/N=C(\N)Nc1ccc(Cl)cc1)/N=C(\N)Nc1ccc(Cl)cc1 [Chlorhexidine Acetate],0.231 °C
24,C#CCC(Cc1cnc2nc(N)nc(N)c2n1)c1ccc(C(=O)N[C@@H](CCC(=O)O)C(=O)O)cc1 (stereo partly drawn) [Pralatrexate],0.593 °C
25,COc1c(N2CCNC(C)C2)c(F)cc2c(=O)c(C(=O)O)cn(C3CC3)c12 (stereo not drawn) [Gatifloxacin],0.0263 °C

# Single entries from the entries so far:
# O=C(NOCC(O)CO)c1cc(Br)c(F)c(F)c1Nc1ccc(I)cc1F (stereo not drawn) – thermal shift ΔTm of Mpro: 0.0183 °C
# Cn1c(Nc2ccc(C(F)(F)F)cc2)nc2cc(Oc3ccnc(-c4ncc(C(F)(F)F)[nH]4)c3)ccc21 – thermal shift ΔTm of Mpro: 0.654 °C
# CN(C)CC(c1ccc(O)cc1)C1(O)CCCCC1 (stereo not drawn) [Desvenlafaxine] – thermal shift ΔTm of Mpro: -0.11 °C
# CC(=O)SCC(Cc1ccccc1)C(=O)NCC(=O)OCc1ccccc1 (stereo not drawn) [Racecadotril] – thermal shift ΔTm of Mpro: 0.0891 °C
# O=C(NO)c1ccc(CC(=O)N(CCO)c2ccccc2)cc1 – thermal shift ΔTm of Mpro: -0.0394 °C

# The list continues.

row,SMILES,thermal shift ΔTm of Mpro
1,O=C(c1ccccc1)c1ccc2n1CCC2C(=O)O (stereo not drawn) [Ketorolac],-0.0435 °C
2,CCN(CC)CCCC(C)Nc1nc(C)cc(Nc2ccc3nc(C)cc(N)c3c2)n1 (stereo not drawn),-0.178 °C
3,CN(C)C/C=C/C(=O)Nc1cc2c(Nc3ccc(F)c(Cl)c3)ncnc2cc1O[C@H]1CCOC1 [Afatinib (BIBW2992) Dimaleate],0.288 °C
4,CN(C)C/C=C/C(=O)Nc1cc2c(Nc3ccc(F)c(Cl)c3)ncnc2cc1O[C@H]1CCOC1 [Afatinib (BIBW2992)],0.13 °C
5,FC(F)(F)COCC(F)(F)F [Fluoroethyl],0.195 °C
6,O=C(Nc1ccccc1)Nc1ccc(-c2ccc(C(=O)[C@@H]3CCC[C@H]3C(=O)O)cc2)cc1,0.743 °C
7,OC[C@@H](O)[C@@H](O)[C@@H](O)CO [Ribitol],-0.00813 °C
8,CCN[C@@H]1C[C@H](N)[C@@H](O[C@H]2OC(CN)=CC[C@H]2N)[C@H](O)[C@H]1O[C@H]1OC[C@](C)(O)[C@H](NC)[C@H]1O [Netilmicin sulfate],0.13 °C
9,O=C1NC(=O)C(=Cc2ccc(-c3ccc(F)cc3)o2)S1 (stereo in doubt),0.41 °C
10,CC(C)(O)c1ccccc1CC[C@@H](SCC1(CC(=O)O)CC1)c1cccc(/C=C/c2ccc3ccc(Cl)cc3n2)c1 [Montelukast Sodium],-0.0297 °C
11,O=C1NC(=O)C(c2ccccc2)(c2ccccc2)N1 [Phenytoin],0.287 °C
12,NC(N)=NCCC[C@H](N)C(=O)NCC(=O)N[C@@H](CC(=O)O)C(=O)O,-0.0745 °C
13,CCN1CC2(OC(=O)c3ccccc3NC(C)=O)CCC(OC)C34C1C(CC23)C1(O)CC(OC)C2CC4C1(O)C2OC (stereo not drawn) [Lappaconite HBr],-0.0383 °C
14,CCNC(=O)/C=C/c1cccc(Br)c1 [Cinromide],0.0457 °C
15,C=CCCCCCCCCC(=O)[O-].C=CCCCCCCCCC(=O)[O-].[Zn+2] [Zinc undecylenate],0.0768 °C
16,COC(=O)Nc1nc2cc([S+]([O-])c3ccccc3)ccc2[nH]1 (stereo not drawn) [Oxfendazole],0.0118 °C
17,Cc1c(CN(C)C(=O)/C=C/c2cnc3c(c2)CCC(=O)N3)oc2ccccc12,-0.0336 °C
18,COc1ccccc1OCC(O)COC(N)=O (stereo not drawn) [Methocarbamol],0.0171 °C
19,O=C1NCCCc2c1oc1ccc(O)cc21,-0.0815 °C
20,Nc1ccn([C@@H]2CS[C@H](CO)O2)c(=O)n1 [Lamivudine],0.0344 °C
21,CN(C)C(=O)Oc1ccc[n+](C)c1 [Pyridostigmine Bromide],-0.13 °C
22,CCc1c(Cl)c(O)c(Cl)c(O)c1C(=O)O[C@H]1[C@H](O)[C@H](OC)[C@H](OC/C2=C\C=C\C[C@H](O)/C(C)=C/[C@H](CC)[C@@H](O[C@@H]3OC(C)(C)[C@@H](OC(=O)C(C)C)[C@H](O)[C@@H]3O)/C(C)=C/C(C)=C/C[C@@H]([C@@H](C)O)OC2=O)O[C@@H]1C [Fidaxomicin],0.0114 °C
23,Cc1cc(N)c2ccccc2[n+]1CCCCCCCCCC[n+]1c(C)cc(N)c2ccccc21 [Dequalinium chloride],-0.249 °C
